Consider two molecules from article PMC11116412.

Results are given in words; binding and its absence hold for the method and conditions named. Binding seen in cells or lysates may run through a third protein. Here binding means that the protein was enriched with, or labelled near, the bait; the list need not be complete.

The target in the assay is Zonula occludens-1 (bovine (endogenous in BAECs)). In words: affinity purification with mass spectrometry; ZO-1 immunoprecipitated (1 µg ZO-1 antibody, 1 mg protein, overnight, protein A agarose beads) from lysates of BAECs treated or not with VEGF (40 ng/ml, 10 min); lysis buffer 1% Nonidet P-40, 0.1% SDS, 0.1% deoxycholic acid, 50 mM Tris pH 7.4, 75 mM …; LC-MS/MS; compared with IgG control IPs, FDR 0.05.

B1: cingulin (CGNL1) (protein, UniProt G5E5V6 1-1293)
chain: MELYFGEYQHVQQEYGVHLRLASDETRKSRNSQHAKAGSYGVSIRVQGIDGHPYIVLNNTEQCLAGTSFSENGPSFPAPMINNLPLHPSKGSVVEESSAEELQLPENPYAPPGPVRNLKQPSVFEGKNGALERKEEPRKASPMLNFERHPELLQPYDPEKNELSLKNHQPPETSWLKALREGTNNKKAWTCMPKPSLSQPTSPPSEDPARSNVTAIRLCSSVVIDDPKKQTSVCMNVQSCSKECLAEEALAPSGRPLPTPSLQAHLEAKKTRPDVLPFRRQDSAGPVLDGARSRRSSSSSTTPTSANSLYRFLLDDQECAIHADNVNRHENRRYIPFLPGTGRDIDTGSIPGVDQLIEKFDQKPGMQRRGRSGKRNRINPEDRKRSRSVDSAFPFGLQGNSEYLTEFSRNLGKSSEHLLRPSQVCPPRAQEHRGRQGGGRAFARLLGAQPRPPLQNKDGKVPENKSAQESPTGRTSSLPAQTKKEEEIKTVTATLMLQNPALATSPDSGTKRISVKTFTSTSNTQATPDLLKGQQELTQQTNEETAKQILYNYLKEGSTDNDDATKRKVNLVFEKIQTLKSRAAGSTQGNNQASNSSSEVKDLLEQKNKLTTEVAELQTQLQLEVKNQQNIKEERDRMKADLEVLQSQHDSKVEESTVLQRRLEESEGALRRHLEELFQVKMEREQHQTEIRDLQDQLSEMHDELDSAKQSEDREKGALIEELLQAKQDLQHLLIAKEEQEDLLRKRERELTALKGALKEEVSSHDREMDKLKEQYDAELLALRESVEEATKNVEVLASRSSSAEQTQVGAEMRVKALQEENEKLRGSVEELERTVARLQRQLADLQDDEAKAKETLKKCEGETRQLEEALLHARKEEKEATSAKRALQTELEEAQRNLSRATQEQKQLSERLKDEAEQKEQLRRLKNEMENERWHLDKTIEKLQKEMADIVEVSRTSTLELQNQLDEYKEKNRRELAEMQRQLKEKTLEAEKSHLTAMKLQDEMRLMEEELRDYQRAQEEALTKRQLLEQTLKDLEYELEAKSHLKDDRGRLVKQMEDKVSQLEMELEEERNNSDLLSERITRSREQMEQMRNELLQERAMKQDLECDKISLERQNKDLKSRIIHLEGSYRSSKEGLVVQMEARIAELEDRLESEERDRASLQLSNRRLERKVKELVMQVDDEHLSLTDQKDQLSLRLKAMKRQVEEAEEEIDRLESSKKKLQRELEEQMDVNEQLQGQLNSMKKDLRLKKLPSKVLDDVDDDDDLSTDGGSLYEAPLSYTFPKDSTVVSQI
As for B1, the binding result is recorded as “binds”.

B2: junction plakoglobin (protein, UniProt Q8SPJ1 1-745)
chain: MEVMNLIEQPIKVTEWQQTYTYDSGIHSGANTCVPSLSSKGLIEEDEACGRQYTLKKTTTYTQSVPPGQGDLEYQMSTTARAKRVREAMCPGVTGEDSSLLLTTQVEGQTTNLQRLAEPSQLLKSAIVHLINYQDDAELATRALPELTKLLNDEDPVVVTKAAMIVNQLSKKEASRRALMGSPQLVAAVVRTMQNTSDLDTARCTTSILHNLSHHREGLLAIFKSGGIPALVRMLSSPVESVLFYAITTLHNLLLYQEGAKMAVRLADGLQKMVPLLNKNNPKFLAITTDCLQLLAYGNQESKLIILANGGPQALVQIMRNYSYEKLLWTTSRVLKVLSVCPSNKPAIVEAGGMQALGKHLTSNSPRLVQNCLWTLRNLSDVATKQEGLESVLKILVNQLSVDDVNVLTCATGTLSNLTCNNSKNKTLVTQNSGVEALIHAILRAGDKDDITEPAVCALRHLTSRHPEAEMAQNSVRLNYGIPAIVKLLNQPNQWPLVKATIGLIRNLALCPANHAPLQEAAVIPRLVQLLVKAHQDAQRHVAAGTQQPYTDGVRMEEIVEGCTGALHILARDPMNRMEIFRLNTIPLFVQLLYSSVENIQRVAAGVLCELAQDKEAADAIDAEGASAPLMELLHSRNEGTATYAAAVLFRISEDKNPDYRKRVSVELTNSLFKHDPAAWEAAQSMIPMNEPYADDMDATYRPMYSSDVPMDPLEMHMDMDGDYPIDTYSDGLRPPYATADHMLA
As for B2, the binding entry is given as “binds”.
